Measurements taken from US20240247030A1 (Seagen Inc., priority 2014, published 2024).

Assay: general procedure: solution-phase peptide synthesis
Settings: conjugation step

Substance | conjugation yield [%]
Boc-Val-Ala-PAB-TubM-OtBu | 58
mDPR(Boc)-Val-Cit-PAB-AE | 17
BOC-Val-Glu(OtBu)-PABQ-TubM-OAllyl | 85

Same assay, conditions: coupling step

Substance | step yield [%]
FMOC-Gluc(O-Allyl)Q-Mep-Ile-Tuv(OAc)-Tup-O-Allyl | 46

Same assay, conditions: late stage modification step

Substance | step yield [%]
(2S,3S,4S,5R,6S)-6-(2-(3-((S)-3-amino-2-(2,5-dioxo-2,5-dihydro-1H-pyrrol-1-yl)propanamido)propanamido)-4-((5S,8S,11S,12R)-11-((S)-sec-butyl)-5,8-diisopropyl-12-(2-((S)-2-((1R,2R)-1-methoxy-2-methyl-3-oxo-3-(((S)-2-phenyl-1-(thiazol-2-yl)ethyl)amino)propyl)pyrrolidin-1-yl)-2-oxoethyl)-4,10-dimethyl-3,6,9-trioxo-2,13-dioxa-4,7,10-triazatetradecyl)phenoxy)-3,4,5-trihydroxytetrahydro-2H-pyran-2-carboxylic acid | 99
Val-Ala-PAB-TubM | 63
(2S,4R)-tert-butyl 4-(2-((1R,3R)-1-acetoxy-3-((2S,3S)—N,3-dimethyl-2-((R)-1-methylpiperidine-2-carboxamido)pentanamido)-4-methylpentyl)thiazole-4-carboxamido)-2-methyl-5-phenylpentanoate | 32
(S)-allyl 2-((2R,3R)-3-((S)-1-((3R,4S,5S)-4-((S)-2-((S)-2-(dimethylamino)-3-methylbutanamido)-N,3-dimethylbutanamido)-3-methoxy-5-methylheptanoyl)pyrrolidin-2-yl)-3-methoxy-2-methylpropanamido)-3-phenylpropanoate | 71
(S)—N-(3-(3-((S)-3-amino-2-(2,5-dioxo-2,5-dihydro-1H-pyrrol-1-yl)propanamido)propanamido)-4-(((2S,3R,4S,5S,6S)-6-carboxy-3,4,5-trihydroxytetrahydro-2H-pyran-2-yl)oxy)benzyl)-1-(((S)-1-(((3R,4S,5S)-3-methoxy-1-((S)-2-((1R,2R)-1-methoxy-2-methyl-3-oxo-3-(((S)-2-phenyl-1-(thiazol-2-yl)ethyl)amino)propyl)pyrrolidin-1-yl)-5-methyl-1-oxoheptan-4-yl)(methyl)amino)-3-methyl-1-oxobutan-2-yl)amino)-N,N,3-trimethyl-1-oxobutan-2-aminium | 99
mDPR-Val-Cit-PAB-quaternary amine-AE (mDPR-vcPAB4-AE) | 99
mDPR-Val-Glu-PABQ-TubM-OH | 93
